In publication PMC8494447:
No constants are given. Whether binding was seen depends on the method and setting. Binding seen in cells or lysates may run through a third protein. Some binding calls cover weakened binding; strength is not graded here. For some assays here: Tags and fused reporters may be left off the sequences shown.

Chains of the proteins cited; added tags and fusions are not shown.
UniProt Q9Y572: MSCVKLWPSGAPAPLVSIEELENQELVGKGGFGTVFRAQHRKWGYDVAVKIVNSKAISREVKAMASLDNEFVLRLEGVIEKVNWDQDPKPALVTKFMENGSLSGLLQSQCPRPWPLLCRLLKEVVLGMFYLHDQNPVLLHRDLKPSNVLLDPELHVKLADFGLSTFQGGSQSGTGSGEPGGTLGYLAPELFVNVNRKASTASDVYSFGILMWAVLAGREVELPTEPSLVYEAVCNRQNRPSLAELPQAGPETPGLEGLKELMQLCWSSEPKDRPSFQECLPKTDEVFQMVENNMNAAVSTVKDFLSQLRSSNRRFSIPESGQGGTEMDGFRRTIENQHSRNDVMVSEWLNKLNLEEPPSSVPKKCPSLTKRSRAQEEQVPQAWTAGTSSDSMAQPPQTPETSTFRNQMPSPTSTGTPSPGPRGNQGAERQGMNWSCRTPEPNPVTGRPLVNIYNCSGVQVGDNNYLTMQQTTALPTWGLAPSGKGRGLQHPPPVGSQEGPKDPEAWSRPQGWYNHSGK
UniProt Q13546: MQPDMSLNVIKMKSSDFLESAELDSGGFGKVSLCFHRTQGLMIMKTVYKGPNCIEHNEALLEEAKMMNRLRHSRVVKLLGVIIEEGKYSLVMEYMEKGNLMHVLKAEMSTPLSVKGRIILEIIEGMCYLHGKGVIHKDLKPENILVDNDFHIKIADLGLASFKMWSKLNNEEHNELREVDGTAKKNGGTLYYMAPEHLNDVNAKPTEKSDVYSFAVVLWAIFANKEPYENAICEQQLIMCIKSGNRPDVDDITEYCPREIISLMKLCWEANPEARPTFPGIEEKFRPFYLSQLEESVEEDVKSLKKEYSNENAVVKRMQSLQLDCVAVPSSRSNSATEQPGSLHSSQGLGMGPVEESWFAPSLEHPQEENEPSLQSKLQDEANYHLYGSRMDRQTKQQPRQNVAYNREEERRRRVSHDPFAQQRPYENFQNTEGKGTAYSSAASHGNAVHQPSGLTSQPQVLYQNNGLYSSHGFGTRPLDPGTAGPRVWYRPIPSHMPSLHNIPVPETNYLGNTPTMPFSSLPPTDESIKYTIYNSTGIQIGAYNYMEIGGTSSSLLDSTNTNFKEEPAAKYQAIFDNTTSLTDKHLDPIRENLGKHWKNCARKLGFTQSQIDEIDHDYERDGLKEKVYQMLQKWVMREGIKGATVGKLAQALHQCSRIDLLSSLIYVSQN

Columns and labels:
[1] = target: T1, Flag-HSPA13 (HT29, stable) (UniProt P48723); test: co-IP; HT29 stably expressing Flag-HSPA13, TNFα for the indicated time; IP with anti-Flag; endogenous partner detected by blot
T1 sequence: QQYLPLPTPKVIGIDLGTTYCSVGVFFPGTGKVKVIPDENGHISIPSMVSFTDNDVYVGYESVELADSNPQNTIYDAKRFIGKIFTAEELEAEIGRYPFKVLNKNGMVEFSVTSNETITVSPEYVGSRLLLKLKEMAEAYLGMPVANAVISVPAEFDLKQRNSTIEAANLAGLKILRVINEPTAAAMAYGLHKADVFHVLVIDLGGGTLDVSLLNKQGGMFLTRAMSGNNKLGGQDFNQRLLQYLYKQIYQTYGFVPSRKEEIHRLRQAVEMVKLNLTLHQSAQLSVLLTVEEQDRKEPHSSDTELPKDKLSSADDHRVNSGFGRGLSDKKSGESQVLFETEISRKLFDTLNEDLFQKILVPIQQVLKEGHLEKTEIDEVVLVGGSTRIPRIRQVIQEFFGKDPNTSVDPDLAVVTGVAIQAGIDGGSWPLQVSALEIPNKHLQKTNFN

[2] = target: RIP3, endogenous in HT29 (human (endogenous in HT29)) (UniProt Q9Y572); test: co-IP; HT29 HSPA13+/+ or HSPA13−/− treated with TNFα (20 ng/ml), 20 nM Smac mimetic and 20 μM Z-VAD (T/S/Z) for 6 hours; IP with anti-RIP3 or control IgG

binding [1]: binds | binding [2]: binds
Substance: RIP1, endogenous in HT29 (from UniProt Q13546 1-671)
